# PMC5349447, “Applying a high-throughput fluorescence polarization assay for the discovery of chemical probes blocking La:RNA interactions in vitro and in cells” (PLoS ONE, 2017)
# Test system: T1, La-WT:fD1-RNA complex
# T1 construct: His; made in house; host or cells: E. coli BL21
# Experiment: EMSA, compound competition, La-WT:fD1
# Assay type: binding, human
# Conditions: native gel, fluorescence scan
# Experimental: 12% native TBE polyacrylamide gels were prepared in a Mini-PROTEAN Tetra Handcast System (BioRad). The gel was pre-run for 30 min at 140 V in 1x TBE buffer (45 mM Tris/HCl pH 8.5, 45 mM boric acid, 1 mM EDTA). To prepare the RNA-mix, fluorescence labeled RNA oligoribonucleotides (oligos) were diluted in fluorescence polarization buffer (20 mM Tris/HCl (pH 7.4), 150 mM NaCl, 3.0 mM MgCl2, 0.5 mM EDTA, 0.05% (v/v) IGEPAL), mixed for 10 min at 80°C, and then immediately placed on ice for at least 5 min. All RNA oligos were used at a final concentration of 50 nM. Recombinant La protein was diluted in D-buffer (20 mM Tris/ HCl (pH 7.4), 150mM NaCl, 3mM MgCl2, 0.5mM EDTA, 5% glycerol) and placed on ice until use.
# La titration was performed at final concentrations of 20, 40, 60, 100, 200, 300, 400, 500, 600 nM La. Three different La concentrations were used for compound studies: 60 nM for fD1 RNA, 200 nM for fPolyU RNA, and 150 nM for TOPf RNA studies. Two μl of diluted compound (diluted in 100% DMSO) or 2 μl 100% DMSO (control reaction) was combined with 8 μl La-mix in a 96-well plate. 10 μl RNA-mix was added, mixed for 2 min, and incubated for 10 min at RT in the dark. Final concentrations in the reaction: 18 mM Tris/HCl (pH 7.4), 135 mM NaCl, 2.7 mM MgCl2, 0.45 mM EDTA, 0.025% (v/v) IGEPAL, 2% glycerol, 10% DMSO). Samples were loaded onto the pre-run gel without any loading buffer. Gels were run at 160 V for 40 min in the dark. The gels were carefully transferred to a clear plastic wrap and scanned using a Typhoon FLA900 imager. The La-RNA complex (La-RNP) formation was quantified using the ImageQuant TL software.
# Next we used our established EMSA to test whether compound C2 and C6 can compete against the three RNA oligos: fD1, fPolyU, and TOPf. All of the EMSA reactions were loaded in the following order: lane 1 contains the RNA oligo alone; lane 2 contains the RNA oligo plus La protein at concentration that shifts 50% of the RNA oligo (positive control); lanes 3–9 contain the RNA oligo, La protein and decreasing concentrations of the compound; and lane 10 contains the RNA oligo and the highest compound concentration (negative control).
row,Compound,auto-fluorescence of compound in EMSA gel
1,"O=C(O)c1ccccc1C(=O)c1ccc(O)cc1O [C2, 2-(2,4-dihydroxybenzoyl)benzoic acid]",displays auto-fluorescence
2,"Cc1ccc(C(=O)c2ccccc2C(=O)O)c(O)c1 [C2.01, 2-(2-hydroxy-4-methylbenzoyl)benzoic acid]",not showing auto-fluorescence
3,"O=C(O)c1ccccc1C(=O)c1ccc2ccccc2c1O [C2.02, 2-(1-hydroxy-2-naphthoyl)benzoic acid]",not showing auto-fluorescence
4,"CCOC(=O)c1ccc2c(c1)C1C=CCC1C(C(=O)O)N2 (stereo not shown) [C6, 8-(ethoxycarbonyl)-3a,4,5,9b-tetrahydro-3Hcyclopenta[c]quinoline-4-carboxylic acid]",not
